No constants are given. Whether binding was seen depends on the method and setting. In cells and extracts the contact can be indirect. Some binding calls cover weakened binding; strength is not graded here.
Legend:
Assay in all cases: co-IP; eGFP-PICK1 WT or coding variants in INS-1E cells; endogenous ICA69 co-precipitated; procedure not shown (supplement)
[1] = target: eGFP-PICK1 R158Q (rat) (UniProt Q9EP80)
[2] = target: eGFP-PICK1 R185Q (rat) (UniProt Q9EP80)
[3] = target: eGFP-PICK1 R197Q (rat) (UniProt Q9EP80)
[4] = target: eGFP-PICK1 R247H (rat) (UniProt Q9EP80)
[5] = target: eGFP-PICK1 WT (eGFP fused to shRNA-insensitive rat PICK1) (rat) (UniProt Q9EP80)

Protein sequences, listed by entry. Tags and fused reporters are not part of them. Lines headed by an entry give the natural chain unless they say otherwise; changes in a name come on top.
UniProt Q9EP80: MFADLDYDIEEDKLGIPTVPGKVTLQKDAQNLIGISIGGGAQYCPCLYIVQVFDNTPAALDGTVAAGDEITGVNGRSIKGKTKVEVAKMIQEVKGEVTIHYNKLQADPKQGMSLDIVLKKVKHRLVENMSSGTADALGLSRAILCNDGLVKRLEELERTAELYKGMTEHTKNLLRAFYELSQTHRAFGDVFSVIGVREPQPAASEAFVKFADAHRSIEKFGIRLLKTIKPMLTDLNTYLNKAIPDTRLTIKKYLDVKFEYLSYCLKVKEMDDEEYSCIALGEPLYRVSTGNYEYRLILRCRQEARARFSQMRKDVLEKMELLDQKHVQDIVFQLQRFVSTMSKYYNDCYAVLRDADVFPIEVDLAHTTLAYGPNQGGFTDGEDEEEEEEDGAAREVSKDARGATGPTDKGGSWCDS

binding [1]: binds
binding [2]: binds
binding [3]: binds
binding [4]: binds
binding [5]: binds
B1: islet cell autoantigen 69 (ICA69), endogenous (protein, UniProt Q63054 1-480)
chain: MSGHKCYSWELQDRFAQDKSVVNKMQQKYWETKQAFIKATGKKEDEHVVASDADLDAKLELFHSIQRTCLDLSKAIVLYQKRICFLSQEENELGKFLRSQGFQDKTRAGKMMQATGKALCFSSQQRLALRNPLCRFHQEVETFRHRAISDTWLTVNRMEQCRTEYRGALLWMKDVSQELDPDLYKQMEKFRKVQTQVRLAKKNFDKLKMDVCQKVDLLGASRCNLLSHMLATYQTTLLHFWEKTSHTMAAIHESFKGYQPYEFTTLKSLQDPMKKLVEKEKKKSSRRENREAVAQEPRQLISLEEENQHKESSTCQKEEGKSVPSSVDKSSADDACSGPIDELLDVKPEEACLGPMAGTPEPESGDKDDLLLLNEIFSTSSLDEGEFSREWAAVFGDDRLKEPAPMGAQGEPDPKPQIGSAFLPSQLLDQNMKDLQASLQEPAKAASDLTAWFSLFADLDPLSNPDAIGKTDKEHELLNA

Reference: article PMC8884907
